These results are taken from PubChem BioAssay AID248 (DTP/NCI, 2004).

The test system of this assay is L1210 leukemia ip in BDF1 mice, survival T/C. As to the kind of experiment: NCI In Vivo Anticancer Drug Screen. Data for tumor model L1210 Leukemia (intraperitoneal) in B6D2F1 (BDF1) mice. Conditions: T/C endpoint: mean survival time, higher T/C = longer survival.
Where [1] appears, read: dose: 100.0 mg/kg/injection, schedule: Q01DX009 (ip), vehicle: Klucel (hydroxypropylcellulose) (HPC).
Setting [2] is: dose: 200.0 mg/kg/injection, schedule: Q01DX009 (ip), vehicle: Klucel (hydroxypropylcellulose) (HPC).
Setting [3] is: dose: 400.0 mg/kg/injection, schedule: Q01DX009 (ip), vehicle: Klucel (hydroxypropylcellulose) (HPC).
Where [4] appears, read: dose: 400.0 mg/kg/injection, schedule: Q04DX003 (ip), vehicle: Klucel (hydroxypropylcellulose) (HPC).
The mark [5] stands for this setting: dose: 400.0 mg/kg/injection, schedule: Q01DX001 (ip), vehicle: saline.
[6] abbreviates: dose: 400.0 mg/kg/injection, schedule: Q04DX003 (ip), vehicle: saline with Tween-80.
Setting [7] is: dose: 100.0 mg/kg/injection, schedule: Q04DX003 (ip), vehicle: saline with Tween-80.
The mark [8] stands for this setting: dose: 200.0 mg/kg/injection, schedule: Q04DX003 (ip), vehicle: saline with Tween-80.
Setting [9] is: dose: 80.0 mg/kg/injection, schedule: Q01DX001 (ip), vehicle: saline.
Setting [10] is: dose: 100.0 mg/kg/injection, schedule: Q01DX001 (ip), vehicle: saline.
The mark [11] stands for this setting: dose: 200.0 mg/kg/injection, schedule: Q01DX001 (ip), vehicle: saline.
The mark [12] stands for this setting: dose: 150.0 mg/kg/injection, schedule: Q01DX001 (ip), vehicle: saline.
The mark [13] stands for this setting: dose: 400.0 mg/kg/injection, schedule: Q01DX009 (ip), vehicle: saline.

The list is a part of this screen's results and no random one: it is rich in T/C values a quarter to a half above the control, in often repeated tests (any T/C) and in doses without a T/C. Other doses and runs of a compound stand elsewhere. T/C gives the treated animals as a percentage of the vehicle group. Some doses have a count of surviving animals in place of a T/C: the source holds a T/C of zero for them, seemingly a mark for toxic or unscored doses. Some survivor counts are full or nearly so, which does not show that the dose was tolerated: the source hardly ever lists a survival T/C far under the control, and the zero likely stands for such cases as well. Counts of survivors are from the toxicity check (mostly the fifth day) where no day follows; animals may have died later. Schedule codes are those of the source, taken here to give the interval after Q, in days (D) or hours (H), and the number of doses after X. Some doses were run more than once; their values stand side by side, smallest first. For survival time, the PubChem record calls one and a half times the control and up active, and a quarter to a half above the control has no call in these data; cut-offs in other NCI protocols can differ.

`OCC1OC(c2[nH]nc3c([Se])ncnc23)C(O)C1O` (stereo unspecified): the survivor count is, setting by setting: (dose: 12.5 mg/kg/injection, schedule: Q01DX005 (ip), vehicle: saline) 5 of 6; (dose: 25.0 mg/kg/injection, schedule: Q01DX005 (ip), vehicle: saline) 2 of 6; (dose: 25.0 mg/kg/injection, schedule: Q01DX009 (ip), vehicle: saline) 4 of 6; (dose: 50.0 mg/kg/injection, schedule: Q01DX005 (ip), vehicle: saline) 0 of 6; (dose: 50.0 mg/kg/injection, schedule: Q01DX009 (ip), vehicle: saline) 0 of 6.
For `Cn1cnc(N)c1C(N)=S`, the survivor count under setting [1] was 3 of 6.
`COc1ccc(OC)c(NC(=O)Sc2ccccc2O)c1`: the survivor count is 4 of 6 under setting [2] and 1 of 6 under setting [3].
For `O=C1C2CCC(=O)N2c2ccccc2S(=O)(=O)C1c1ccccc1` (stereo unspecified), for the setting “dose: 12.5 mg/kg/injection, schedule: Q04DX003 (ip), vehicle: Klucel (hydroxypropylcellulose) (HPC)”, the survivor count is 6 of 6.
In the case of `O=[n+]1ccn2ccccc2c1`, the survivor count (dose: 200.0 mg/kg/injection, schedule: Q01DX009 (ip), vehicle: saline) is 1 of 6 and the survivor count under setting [4] is given as 0 of 6.
For `OC1CSC1`, the survivor count under setting [5] is 2 of 4.
On to `CC1(C)c2cc3ccc(Cl)cc3nc2-c2ccccc2C1(C)O` (stereo unspecified), for which, under setting [3], the survivor count is 6 of 6.
For `COc1ccc(Cc2c3cc(OC)c(OC)cc3cc[n+]2C)cc1OC`, the survivor count reads like this: (dose: 100.0 mg/kg/injection, schedule: Q01DX009 (ip), vehicle: saline with Tween-80) 1 of 6; (dose: 200.0 mg/kg/injection, schedule: Q01DX009 (ip), vehicle: saline with Tween-80) 1 of 6; under setting [6], 1 of 6.
As to `O=NN(CCCl)C(=O)NC1Cc2ccccc2C1`, the T/C (dose: 16.0 mg/kg/injection, schedule: Q01DX001 (ip), vehicle: other) was 126 % of control and the T/C (dose: 31.0 mg/kg/injection, schedule: Q01DX001 (ip), vehicle: other) was 141 % of control. Further, the survivor count is, setting by setting: (dose: 750.0 mg/kg/injection, schedule: Q01DX001 (ip), vehicle: other) 5 of 6; (dose: 1000.0 mg/kg/injection, schedule: Q01DX001 (ip), vehicle: other) 2 of 6.
As to `Cc1ccc(N=C=Nc2ccc(C)cc2)cc1`, the survivor count is listed as 4 of 6 (dose: 100.0 mg/kg/injection, schedule: Q04DX003 (ip), vehicle: Klucel (hydroxypropylcellulose) (HPC)); 1 of 6 (dose: 200.0 mg/kg/injection, schedule: Q04DX003 (ip), vehicle: Klucel (hydroxypropylcellulose) (HPC)); 0 of 6 under setting [4].
Turning to `CC(C)OCCSP(SCCOC(C)C)SCCOC(C)C`, the survivor count runs as follows: under setting [7], 6 of 6; under setting [8], 1 of 6; under setting [6], 2 of 6.
As to `c1ccc(-c2n[nH]c(-c3ccccn3)n2)nc1`, the survivor count by setting is: (dose: 25.0 mg/kg/injection, schedule: Q01DX009 (ip), vehicle: Klucel (hydroxypropylcellulose) (HPC)) 1 of 3; (dose: 50.0 mg/kg/injection, schedule: Q01DX009 (ip), vehicle: Klucel (hydroxypropylcellulose) (HPC)) 1 of 3; under setting [1], 0 of 3; under setting [2], 0 of 3.
In the case of `O=[N+]([O-])c1cccc(S(=O)(=O)OCn2ncc3ccc([N+](=O)[O-])cc32)c1`, the survivor count by setting is: under setting [9], 1 of 4; under setting [10], 0 of 4; under setting [11], 0 of 4; under setting [5], 0 of 4.
Regarding `CN1CCCCC1c1ccccc1` (stereo unspecified), the survivor count is 0 of 6 under setting [12] and 0 of 6 (dose: 300.0 mg/kg/injection, schedule: Q01DX001 (ip), vehicle: saline).
For the molecule `CCCN=C(C)c1ccccc1O`, the survivor count (dose: 400.0 mg/kg/injection, schedule: Q04DX003 (ip), vehicle: acetone) is listed as 1 of 6.
`O=C(O)C(=O)c1ccc(O)cc1O`: under setting [5], the survivor count is on record as 2 of 4.
Turning to `COc1ccnc(SCc2ccccc2)n1`, the survivor count under setting [3] was 0 of 6.
With `CCC(=O)C(CCCN(C)C)(c1ccccc1)c1ccccc1`, the survivor count is on record as 0 of 6 under setting [9], 0 of 6 under setting [10], 0 of 6 under setting [11] and 0 of 6 under setting [5].
For the molecule `CCc1ccccc1NC(=O)Oc1ccc(SC)cc1`, the survivor count was 6 of 6 under setting [7]; 6 of 6 under setting [8]; 2 of 3 and 5 of 6 (dose: 400.0 mg/kg/injection, schedule: Q01DX009 (ip), vehicle: saline with Tween-80).
Consider `CCCCCCCCCCC(N)P(=O)(O)O` (stereo unspecified), for which the survivor count is, setting by setting: (dose: 75.0 mg/kg/injection, schedule: Q01DX001 (ip), vehicle: saline) 6 of 6; under setting [12], 6 of 6.
Regarding `CCCCCCN(CCCCCC)CCCCCC`, the survivor count (dose: 256.0 mg/kg/injection, schedule: Q01DX015 (ip), vehicle: carboxymethylcellulose (CMC)) was 1 of 6.
On to `CCCCCCCCCCCCNC(=O)c1ccc[n+](C)c1`, for which the survivor count was 1 of 6 (dose: 35.0 mg/kg/injection, schedule: Q01DX009 (ip), vehicle: saline); 3 of 6 (dose: 50.0 mg/kg/injection, schedule: Q01DX001 (ip), vehicle: saline); 4 of 6 (dose: 55.0 mg/kg/injection, schedule: Q01DX009 (ip), vehicle: saline); 0 of 6 (dose: 80.0 mg/kg/injection, schedule: Q01DX009 (ip), vehicle: saline); 2 of 6 under setting [10]; 0 of 6 under setting [11]. Under setting [5], the survivor count is recorded as 0 of 6.
In the case of `O=[N+]([O-])c1ccc(/C=N/c2oc(-c3ccc([N+](=O)[O-])cc3)nc2SCc2ccccc2)cc1`, the survivor count (dose: 400.0 mg/kg/injection, schedule: Q04DX002 (ip), vehicle: Klucel (hydroxypropylcellulose) (HPC)) is listed as 3 of 3.
As to `CC(=O)OS(=O)(=O)c1ccc(C)cc1`, the survivor count under setting [13] is 6 of 6.
Turning to `CCc1cc(/C=C2\C(=O)C=Cc3ccccc32)c(O)s1`, where the note is “dose: 200.0 mg/kg/injection, schedule: Q04DX002 (ip), vehicle: saline with Tween-80”, the survivor count is on record as 3 of 3.
For `NC(Cc1ccc(O)c(I)c1)C(=O)O` (stereo unspecified), under setting [13], the survivor count is 0 of 6.
`CCCCN(C)N=Nc1cn(C2OC(CO)C(O)C2O)c(=O)n(C)c1=O` (stereo unspecified): the T/C (dose: 200.0 mg/kg/injection, schedule: Q01DX005 (ip), vehicle: saline) is 128 % of control.
